These are yes or no findings as the source states them, for the method shown. Binding seen in cells or lysates may run through a third protein. Some results given as binding are weak or reduced against the parent protein; the word gives no strength.
Legend:
FLAG-tagged macroH2A1.2 = FLAG-tagged macroH2A1.2 (UniProt O75367); assay: co-IP; anti-FLAG M2 magnetic beads, 4 °C 60 min, on MNase-digested nuclear lysates of parental or FLAG-macroH2A1.1/1.2 HEK293 T-REx cells; with or without CPT (1 µM, 30 min) and PARPi Olaparib (10 µM); washes with 150 mM KCl, 0.1% NP-40; western blot
FLAG-tagged macroH2A1.1 [1] = target: FLAG-tagged macroH2A1.1 (UniProt O75367); assay: as above
FLAG-tagged macroH2A1.1 [2] = target: FLAG-tagged macroH2A1.1 (UniProt O75367); assay: co-IP; Co-IP of XRCC1 with FLAG-macroH2A1.1, wild type or PAR-binding-domain mutant, with or without CPT and PARP inhibition (Supplementary Fig. 4f); cells not given

By UniProt entry, the sequences of proteins in these tests, tags left out. Where a name states a change or a piece, a line headed by the entry shows the natural chain unless it says otherwise. Chains listed by the source or under a name are the forms on record and can include a tag or linker.
UniProt O75367: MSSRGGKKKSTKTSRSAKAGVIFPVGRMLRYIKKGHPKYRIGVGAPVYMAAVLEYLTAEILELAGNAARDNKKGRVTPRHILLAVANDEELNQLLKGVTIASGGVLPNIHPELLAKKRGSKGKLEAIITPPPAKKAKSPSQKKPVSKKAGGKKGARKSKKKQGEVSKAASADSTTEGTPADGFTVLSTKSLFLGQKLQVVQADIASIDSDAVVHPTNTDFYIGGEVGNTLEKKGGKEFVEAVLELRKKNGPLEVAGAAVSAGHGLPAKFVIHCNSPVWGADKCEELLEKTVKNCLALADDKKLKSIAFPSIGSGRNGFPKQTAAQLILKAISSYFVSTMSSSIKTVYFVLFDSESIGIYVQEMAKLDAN
FLAG-tagged macroH2A1.2 (O75367, form named): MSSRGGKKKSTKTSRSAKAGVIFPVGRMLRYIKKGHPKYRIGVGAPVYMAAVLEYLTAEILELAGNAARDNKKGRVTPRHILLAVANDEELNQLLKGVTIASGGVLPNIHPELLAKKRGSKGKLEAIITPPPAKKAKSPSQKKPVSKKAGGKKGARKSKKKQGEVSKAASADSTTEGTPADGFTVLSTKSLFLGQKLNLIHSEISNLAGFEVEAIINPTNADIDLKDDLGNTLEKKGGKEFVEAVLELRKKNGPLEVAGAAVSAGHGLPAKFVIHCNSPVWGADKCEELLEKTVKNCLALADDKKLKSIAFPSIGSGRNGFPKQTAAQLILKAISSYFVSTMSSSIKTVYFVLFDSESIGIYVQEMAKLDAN
UniProt P11387: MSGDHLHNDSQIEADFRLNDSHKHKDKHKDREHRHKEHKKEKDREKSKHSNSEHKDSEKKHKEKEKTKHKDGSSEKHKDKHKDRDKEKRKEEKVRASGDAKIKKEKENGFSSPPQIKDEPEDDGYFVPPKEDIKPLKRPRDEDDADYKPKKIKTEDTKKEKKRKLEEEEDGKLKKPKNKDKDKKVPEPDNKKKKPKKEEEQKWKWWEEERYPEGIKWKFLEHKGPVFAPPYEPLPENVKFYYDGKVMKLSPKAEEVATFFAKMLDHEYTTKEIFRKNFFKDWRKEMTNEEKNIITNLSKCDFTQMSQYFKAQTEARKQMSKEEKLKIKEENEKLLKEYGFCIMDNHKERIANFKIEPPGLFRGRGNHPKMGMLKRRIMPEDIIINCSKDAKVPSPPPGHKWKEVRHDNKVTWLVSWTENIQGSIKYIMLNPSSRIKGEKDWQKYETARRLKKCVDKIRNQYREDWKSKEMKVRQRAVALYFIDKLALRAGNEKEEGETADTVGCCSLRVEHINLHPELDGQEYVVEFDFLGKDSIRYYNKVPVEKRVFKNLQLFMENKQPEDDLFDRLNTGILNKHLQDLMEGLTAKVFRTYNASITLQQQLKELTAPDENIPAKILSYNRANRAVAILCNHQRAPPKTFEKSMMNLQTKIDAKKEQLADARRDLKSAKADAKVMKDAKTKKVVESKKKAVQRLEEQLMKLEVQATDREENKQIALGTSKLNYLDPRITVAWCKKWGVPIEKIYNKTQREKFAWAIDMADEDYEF
UniProt P09874: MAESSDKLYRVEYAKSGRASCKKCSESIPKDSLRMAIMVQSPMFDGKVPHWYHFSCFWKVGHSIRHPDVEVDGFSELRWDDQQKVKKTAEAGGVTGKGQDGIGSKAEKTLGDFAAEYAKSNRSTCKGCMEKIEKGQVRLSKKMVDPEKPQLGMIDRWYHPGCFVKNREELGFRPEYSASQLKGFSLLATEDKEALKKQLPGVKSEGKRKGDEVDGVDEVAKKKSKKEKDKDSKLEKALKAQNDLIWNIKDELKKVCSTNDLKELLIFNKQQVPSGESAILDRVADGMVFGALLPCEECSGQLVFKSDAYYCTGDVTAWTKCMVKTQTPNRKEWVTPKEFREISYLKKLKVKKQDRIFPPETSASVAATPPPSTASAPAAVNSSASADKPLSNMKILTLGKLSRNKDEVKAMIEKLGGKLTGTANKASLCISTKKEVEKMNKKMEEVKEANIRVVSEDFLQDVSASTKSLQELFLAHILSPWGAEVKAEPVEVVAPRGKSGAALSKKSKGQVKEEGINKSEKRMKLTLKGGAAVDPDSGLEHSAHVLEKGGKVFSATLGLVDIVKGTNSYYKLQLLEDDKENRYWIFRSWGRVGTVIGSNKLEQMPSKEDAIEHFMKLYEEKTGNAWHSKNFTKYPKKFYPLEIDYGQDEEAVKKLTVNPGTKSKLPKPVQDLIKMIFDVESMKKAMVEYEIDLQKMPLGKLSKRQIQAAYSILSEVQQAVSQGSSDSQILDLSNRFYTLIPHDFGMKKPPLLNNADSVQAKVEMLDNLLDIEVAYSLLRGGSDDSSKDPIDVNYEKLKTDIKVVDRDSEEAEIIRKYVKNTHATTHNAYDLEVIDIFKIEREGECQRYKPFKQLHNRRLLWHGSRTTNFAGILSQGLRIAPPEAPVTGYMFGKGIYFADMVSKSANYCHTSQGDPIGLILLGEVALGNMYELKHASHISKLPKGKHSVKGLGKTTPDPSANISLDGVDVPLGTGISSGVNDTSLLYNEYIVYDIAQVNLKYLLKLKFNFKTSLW
UniProt P18887: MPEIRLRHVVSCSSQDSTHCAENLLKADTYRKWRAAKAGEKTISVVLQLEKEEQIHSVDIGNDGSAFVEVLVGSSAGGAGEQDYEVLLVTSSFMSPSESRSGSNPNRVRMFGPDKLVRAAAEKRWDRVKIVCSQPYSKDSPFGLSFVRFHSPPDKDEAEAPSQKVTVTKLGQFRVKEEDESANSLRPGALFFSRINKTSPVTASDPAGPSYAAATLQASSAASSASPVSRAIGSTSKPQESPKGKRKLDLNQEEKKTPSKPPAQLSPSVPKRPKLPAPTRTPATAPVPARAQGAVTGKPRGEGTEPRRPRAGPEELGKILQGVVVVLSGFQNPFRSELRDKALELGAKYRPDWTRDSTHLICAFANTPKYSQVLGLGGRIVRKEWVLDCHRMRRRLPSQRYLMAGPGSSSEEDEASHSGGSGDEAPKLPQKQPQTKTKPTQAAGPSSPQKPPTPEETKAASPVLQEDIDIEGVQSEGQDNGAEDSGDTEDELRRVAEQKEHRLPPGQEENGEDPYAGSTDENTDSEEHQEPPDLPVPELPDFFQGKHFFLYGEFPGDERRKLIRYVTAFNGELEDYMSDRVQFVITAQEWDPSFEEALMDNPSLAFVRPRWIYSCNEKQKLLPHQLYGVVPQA

binding (FLAG-tagged macroH2A1.2)	binding (FLAG-tagged macroH2A1.1 [1])	binding (FLAG-tagged macroH2A1.1 [2])	Substance
binds weakly	binds		DNA topoisomerase 1 (TOP1) (from UniProt P11387 1-765) (enzyme)
	binds		Poly(ADP-ribose) Polymerase 1 (PARP1) (from UniProt P09874 1-1014) (enzyme)
binds weakly	binds	binds	XRCC1 (from UniProt P18887 1-633)

Reference: article PMC12343833
